# These are yes or no findings as the source states them, for the method shown. Some results given as binding are weak or reduced against the parent protein; the word gives no strength. For some assays here: Tags and fused reporters may be left off the sequences shown.
# Amino acid sequences for entries named in this document (tags omitted). A change or cut given only in a name is not applied to a line headed by its entry.
# UniProt Q96RY7: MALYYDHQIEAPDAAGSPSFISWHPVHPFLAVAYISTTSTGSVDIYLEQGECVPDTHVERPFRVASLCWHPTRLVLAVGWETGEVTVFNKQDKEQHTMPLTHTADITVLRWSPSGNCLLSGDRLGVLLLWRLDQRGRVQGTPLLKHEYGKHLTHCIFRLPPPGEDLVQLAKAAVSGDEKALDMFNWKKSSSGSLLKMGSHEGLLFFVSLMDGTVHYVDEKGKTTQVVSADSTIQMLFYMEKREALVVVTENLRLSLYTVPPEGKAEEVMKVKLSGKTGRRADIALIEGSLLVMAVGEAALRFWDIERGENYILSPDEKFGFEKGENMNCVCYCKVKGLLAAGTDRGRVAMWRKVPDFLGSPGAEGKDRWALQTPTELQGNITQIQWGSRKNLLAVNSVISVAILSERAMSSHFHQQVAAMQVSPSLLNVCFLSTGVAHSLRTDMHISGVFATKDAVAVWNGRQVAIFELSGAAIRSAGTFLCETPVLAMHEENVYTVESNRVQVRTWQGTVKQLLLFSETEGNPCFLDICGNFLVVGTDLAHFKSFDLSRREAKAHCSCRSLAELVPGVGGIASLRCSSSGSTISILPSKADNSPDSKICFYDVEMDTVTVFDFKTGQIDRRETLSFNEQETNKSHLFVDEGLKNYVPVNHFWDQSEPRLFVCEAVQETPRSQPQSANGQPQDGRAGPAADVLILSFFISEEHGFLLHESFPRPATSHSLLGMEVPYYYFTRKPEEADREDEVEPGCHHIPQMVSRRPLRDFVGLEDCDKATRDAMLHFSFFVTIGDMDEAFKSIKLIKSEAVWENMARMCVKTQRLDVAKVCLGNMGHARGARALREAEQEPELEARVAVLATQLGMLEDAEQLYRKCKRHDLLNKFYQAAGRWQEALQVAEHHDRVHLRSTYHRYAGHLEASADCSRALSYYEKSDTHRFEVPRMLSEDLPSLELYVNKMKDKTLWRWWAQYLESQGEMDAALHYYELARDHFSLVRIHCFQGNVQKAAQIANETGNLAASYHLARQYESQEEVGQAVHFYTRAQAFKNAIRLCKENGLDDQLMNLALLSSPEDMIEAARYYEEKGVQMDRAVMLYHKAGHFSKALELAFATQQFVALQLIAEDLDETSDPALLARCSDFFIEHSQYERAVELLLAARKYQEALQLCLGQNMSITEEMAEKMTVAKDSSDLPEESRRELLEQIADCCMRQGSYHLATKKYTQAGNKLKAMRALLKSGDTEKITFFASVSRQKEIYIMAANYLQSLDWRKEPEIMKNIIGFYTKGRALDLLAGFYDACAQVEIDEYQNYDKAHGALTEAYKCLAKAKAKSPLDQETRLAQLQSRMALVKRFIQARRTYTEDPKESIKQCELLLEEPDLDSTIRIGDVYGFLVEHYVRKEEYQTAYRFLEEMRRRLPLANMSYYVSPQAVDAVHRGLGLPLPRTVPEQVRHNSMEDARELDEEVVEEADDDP
# T1: IFT144 (WDR19) (human) (UniProt Q8NEZ3)
# T1 sequence: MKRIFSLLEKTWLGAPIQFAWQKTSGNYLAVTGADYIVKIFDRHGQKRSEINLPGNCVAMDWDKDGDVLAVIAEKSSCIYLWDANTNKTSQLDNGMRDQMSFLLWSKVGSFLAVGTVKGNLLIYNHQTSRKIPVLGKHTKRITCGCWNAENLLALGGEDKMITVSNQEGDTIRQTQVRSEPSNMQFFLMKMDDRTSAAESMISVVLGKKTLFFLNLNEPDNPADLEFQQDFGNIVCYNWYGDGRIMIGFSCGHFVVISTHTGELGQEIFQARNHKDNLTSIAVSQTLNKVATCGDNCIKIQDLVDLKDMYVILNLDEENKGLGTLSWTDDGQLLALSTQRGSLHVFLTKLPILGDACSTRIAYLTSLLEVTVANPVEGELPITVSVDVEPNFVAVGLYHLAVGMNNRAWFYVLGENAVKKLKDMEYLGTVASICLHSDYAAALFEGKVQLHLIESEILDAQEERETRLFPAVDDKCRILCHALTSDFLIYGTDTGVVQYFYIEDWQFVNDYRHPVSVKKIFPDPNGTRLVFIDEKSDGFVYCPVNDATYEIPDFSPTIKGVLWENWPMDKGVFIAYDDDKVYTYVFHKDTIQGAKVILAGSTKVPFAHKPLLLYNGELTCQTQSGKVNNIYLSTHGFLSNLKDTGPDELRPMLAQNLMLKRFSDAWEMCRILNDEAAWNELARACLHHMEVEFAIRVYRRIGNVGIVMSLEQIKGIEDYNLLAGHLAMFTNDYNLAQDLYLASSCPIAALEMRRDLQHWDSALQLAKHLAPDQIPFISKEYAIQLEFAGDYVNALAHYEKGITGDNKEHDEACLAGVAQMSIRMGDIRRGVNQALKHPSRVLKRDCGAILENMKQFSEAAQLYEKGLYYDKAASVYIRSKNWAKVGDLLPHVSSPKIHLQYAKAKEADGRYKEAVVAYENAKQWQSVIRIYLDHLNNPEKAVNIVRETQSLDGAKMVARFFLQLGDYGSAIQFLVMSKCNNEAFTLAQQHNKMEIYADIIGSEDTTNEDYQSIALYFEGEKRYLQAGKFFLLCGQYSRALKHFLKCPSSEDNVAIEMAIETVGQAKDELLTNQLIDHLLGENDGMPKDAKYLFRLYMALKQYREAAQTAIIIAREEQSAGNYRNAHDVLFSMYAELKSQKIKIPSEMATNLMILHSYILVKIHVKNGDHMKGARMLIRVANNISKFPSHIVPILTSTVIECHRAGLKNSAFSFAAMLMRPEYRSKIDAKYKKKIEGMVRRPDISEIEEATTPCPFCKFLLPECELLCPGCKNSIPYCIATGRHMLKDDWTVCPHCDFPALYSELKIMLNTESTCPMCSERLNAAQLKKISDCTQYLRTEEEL
# T2: IFT122 (human) (UniProt Q9HBG6)
# T2 sequence: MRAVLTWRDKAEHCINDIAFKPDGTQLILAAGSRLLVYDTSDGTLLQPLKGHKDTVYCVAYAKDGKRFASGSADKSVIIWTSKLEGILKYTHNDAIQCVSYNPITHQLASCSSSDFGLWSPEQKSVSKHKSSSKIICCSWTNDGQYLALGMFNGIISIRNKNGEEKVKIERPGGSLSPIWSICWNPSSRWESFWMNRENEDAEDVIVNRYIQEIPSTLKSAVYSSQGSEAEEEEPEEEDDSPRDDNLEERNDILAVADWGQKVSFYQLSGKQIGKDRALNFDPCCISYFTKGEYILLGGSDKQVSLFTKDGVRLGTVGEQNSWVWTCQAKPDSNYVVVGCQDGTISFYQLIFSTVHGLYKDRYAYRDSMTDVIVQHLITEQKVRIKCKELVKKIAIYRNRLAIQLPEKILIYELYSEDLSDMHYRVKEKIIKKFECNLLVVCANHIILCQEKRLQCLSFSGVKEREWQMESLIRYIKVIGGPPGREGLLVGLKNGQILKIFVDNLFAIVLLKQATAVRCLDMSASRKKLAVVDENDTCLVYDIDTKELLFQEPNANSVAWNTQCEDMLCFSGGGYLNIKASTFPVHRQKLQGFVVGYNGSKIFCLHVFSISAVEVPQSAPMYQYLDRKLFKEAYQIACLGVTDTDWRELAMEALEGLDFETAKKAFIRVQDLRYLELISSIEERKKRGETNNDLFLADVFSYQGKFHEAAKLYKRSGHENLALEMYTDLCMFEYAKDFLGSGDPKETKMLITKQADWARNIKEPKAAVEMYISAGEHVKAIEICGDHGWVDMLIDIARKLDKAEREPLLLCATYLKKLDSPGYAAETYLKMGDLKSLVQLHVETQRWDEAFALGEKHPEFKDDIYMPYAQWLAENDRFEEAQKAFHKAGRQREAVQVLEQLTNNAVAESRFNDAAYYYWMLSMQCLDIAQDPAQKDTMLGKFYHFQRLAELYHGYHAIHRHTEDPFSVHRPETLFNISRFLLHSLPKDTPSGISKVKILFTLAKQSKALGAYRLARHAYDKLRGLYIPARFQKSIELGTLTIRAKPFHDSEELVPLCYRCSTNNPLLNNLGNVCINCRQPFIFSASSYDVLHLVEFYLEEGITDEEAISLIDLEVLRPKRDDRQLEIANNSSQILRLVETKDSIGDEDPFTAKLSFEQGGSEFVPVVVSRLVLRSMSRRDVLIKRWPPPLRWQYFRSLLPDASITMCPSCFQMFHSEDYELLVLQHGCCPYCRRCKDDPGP
# B1: IFT122 (protein, UniProt Q9HBG6 1-1241)
# chain: T2 sequence
# B2: TULP3 with N-terminal mCherry tag (protein, UniProt O75386-1 1-442)
# chain: MEASRCRLSPSGDSVFHEEMMKMRQAKLDYQRLLLEKRQRKKRLEPFMVQPNPEARLRRAKPRASDEQTPLVNCHTPHSNVILHGIDGPAAVLKPDEVHAPSVSSSVVEEDAENTVDTASKPGLQERLQKHDISESVNFDEETDGISQSACLERPNSASSQNSTDTGTSGSATAAQPADNLLGDIDDLEDFVYSPAPQGVTVRCRIIRDKRGMDRGLFPTYYMYLEKEENQKIFLLAARKRKKSKTANYLISIDPVDLSREGESYVGKLRSNLMGTKFTVYDRGICPMKGRGLVGAAHTRQELAAISYETNVLGFKGPRKMSVIIPGMTLNHKQIPYQPQNNHDSLLSRWQNRTMENLVELHNKAPVWNSDTQSYVLNFRGRVTQASVKNFQIVHKNDPDYIVMQFGRVADDVFTLDYNYPLCAVQAFGIGLSSFDSKLACE
# B3: IFT139 (TTC21B/THM1) with N-terminal mCherry tag (protein, UniProt Q7Z4L5 1-1316)
# chain: MDSQELKTLINYYCQERYFHHVLLVASEGIKRYGSDPVFRFYHAYGTLMEGKTQEALREFEAIKNKQDVSLCSLLALIYAHKMSPNPDREAILESDARVKEQRKGAGEKALYHAGLFLWHIGRHDKAREYIDRMIKISDGSKQGHVLKAWLDITRGKEPYTKKALKYFEEGLQDGNDTFALLGKAQCLEMRQNYSGALETVNQIIVNFPSFLPAFVKKMKLQLALQDWDQTVETAQRLLLQDSQNVEALRMQALYYVCREGDIEKASTKLENLGNTLDAMEPQNAQLFYNITLAFSRTCGRSQLILQKIQTLLERAFSLNPQQSEFATELGYQMILQGRVKEALKWYKTAMTLDETSVSALVGFIQCQLIEGQLQDADQQLEFLNEIQQSIGKSAELIYLHAVLAMKKNKRQEEVINLLNDVLDTHFSQLEGLPLGIQYFEKLNPDFLLEIVMEYLSFCPMQPASPGQPLCPLLRRCISVLETVVRTVPGLLQTVFLIAKVKYLSGDIEAAFNNLQHCLEHNPSYADAHLLLAQVYLSQEKVKLCSQSLELCLSYDFKVRDYPLYHLIKAQSQKKMGEIADAIKTLHMAMSLPGMKRIGASTKSKDRKTEVDTSHRLSIFLELIDVHRLNGEQHEATKVLQDAIHEFSGTSEEVRVTIANADLALAQGDIERALSILQNVTAEQPYFIEAREKMADIYLKHRKDKMLYITCFREIAERMANPRSFLLLGDAYMNILEPEEAIVAYEQALNQNPKDGTLASKMGKALIKTHNYSMAITYYEAALKTGQKNYLCYDLAELLLKLKWYDKAEKVLQHALAHEPVNELSALMEDGRCQVLLAKVYSKMEKLGDAITALQQARELQARVLKRVQMEQPDAVPAQKHLAAEICAEIAKHSVAQRDYEKAIKFYREALVHCETDNKIMLELARLYLAQDDPDSCLRQCALLLQSDQDNEAATMMMADLMFRKQDYEQAVFHLQQLLERKPDNYMTLSRLIDLLRRCGKLEDVPRFFSMAEKRNSRAKLEPGFQYCKGLYLWYTGEPNDALRHFNKARKDRDWGQNALYNMIEICLNPDNETVGGEVFENLDGDLGNSTEKQESVQLAVRTAEKLLKELKPQTVQGHVQLRIMENYCLMATKQKSNVEQALNTFTEIAASEKEHIPALLGMATAYMILKQTPRARNQLKRIAKMNWNAIDAEEFEKSWLLLADIYIQSAKYDMAEDLLKRCLRHNRSCCKAYEYMGYIMEKEQAYTDAALNYEMAWKYSNRTNPAVGYKLAFNYLKAKRYVDSIDICHQVLEAHPTYPKIRKDILDKARASLRP
# How the values were obtained:
# [1] = biological target: T1, IFT144 (WDR19) (human); assay: cryo-EM structure; IFT-A complex co-expressed in HEK293F and co-purified; composite map from the IFT-A and IFT-A (-IFT139) datasets; 20 mM Tris-HCl pH 8.0, 200 mM NaCl, 2 mM DTT, 2 mM FFC-8 added; both purified
# [2] = biological target: T2, IFT122 (human); assay: as above
# [3] = biological target: IFT140 (human) (UniProt Q96RY7); assay: cryo-EM structure; IFT-A-TULP3 complex with IFT139 (constructs 1-3, 5, 6), co-expressed and co-purified; 200 kV Arctica dataset, low-resolution map; both purified
# [4] = biological target: T2, IFT122 (human); assay: as above
# [5] = biological target: IFT140 (human) (UniProt Q96RY7); assay: cryo-EM structure; IFT-A (without IFT139)-TULP3 complex co-expressed in HEK293F and co-purified; Krios dataset, focused refinement of the TULP3-binding region; both purified
# [6] = biological target: T2, IFT122 (human); assay: as above
binding [1],binding [2],further results,Molecule
binds,binds,–,IFT140 (from UniProt Q96RY7-1 1-1462)
binds,–,–,B1
–,–,binding [3]: binds; binding [4]: binds; binding [5]: binds; binding [6]: binds,B2
–,binds,–,B3

# From paper PMC10066299
